# Experimental data taken from PubChem BioAssay AID540276 (National Center for Advancing Translational Sciences (NCATS), 2011).
# Where “and” joins values, the source holds several entries; their conditions need not be identical. Identical values can stand only once. Hit rate of the full screen: of about 300,000 compounds, about 5,400 (1.8%) were called active. This list was built around the results that the source calls inconclusive (neither active nor inactive); the mix of calls is not that of the screen. The call rests on the fitted dose curve; tested in HEK293 cells. A potency beside an inconclusive call is a rough fit, not a confirmed value.
# Assay: qHTS for inhibitors of binding or entry into cells for Marburg Virus
# Conditions: Marburg virus pseudotyped entry inhibition, cell reporter; activity change, negative = inhibition: at 37.8 µM (top of the series) unless noted
# On the % scale 0 is the no-effect control and ±100 the full control effect; potency means the concentration at half of the fitted maximal effect.
Structure (SMILES),Potency,"activity change, negative = inhibition"
Cc1cc(Br)c(NC(=O)CN2CC=C(c3ccccc3)CC2)c(Br)c1,"inconclusive: 20 µM [inhibitor, partial curve, poor fit]",
COc1ccccc1CNC(=O)CCCCn1c(=O)c2ccccc2n(Cc2c(C)cc(C)cc2C)c1=O,,inactive: 11% [at 46.1 µM]
COc1cccc(-c2nn3c(-c4ccccn4)nnc3s2)c1,inactive,
COc1ccc(N2CCN(C(=O)CCc3c(C)nc4c(-c5ccccc5)c(C)nn4c3C)CC2)cc1,"inconclusive: 2.51 µM [activator, single point]",
C1CN(CCN2CCOCC2)CCN1,,inactive: 3.05%
CSCCCNC(=S)N1CCc2ccccc2C1,"inconclusive: 0.0891 µM [inhibitor, partial curve, poor fit]",
CC(C)CN1C(=O)c2ccc(C(=O)Nc3ccc(OCC(=O)O)cc3)cc2C1=O,,inactive: 2% [at 46.1 µM]
Cc1ccc(N(C)S(=O)(=O)c2cccc(C(=O)NC3CC(C)(C)NC(C)(C)C3)c2)cc1,"inconclusive: 22.4 µM [inhibitor, single point]",
COc1ccccc1CNC(=O)CCc1c(C)c2ccc(OC)c(C)c2oc1=O,"inconclusive: 0.316 µM [inhibitor, full curve, poor fit]",
Cc1cn([C@H]2C=C[C@@H](CO)O2)c(=O)[nH]c1=O,"inactive and inconclusive: 11.2 µM [inhibitor, single point]",
Cc1c(C(=O)Nc2ccc(F)c(F)c2)oc2ccc(S(=O)(=O)N3CCCCC3)cc12,"inconclusive: 0.461 µM [inhibitor, single point]",
N#C/C(=C/c1ccc(-c2cccc([N+](=O)[O-])c2)o1)C(=O)Nc1nc(-c2cccs2)cs1,"inconclusive: 35.5 µM [activator, single point]",
O=C(Nc1nc(-c2nc3ccccc3s2)cs1)c1ccc(S(=O)(=O)N2CCOCC2)cc1,"inconclusive: 29.1 µM [inhibitor, single point]",
CC(C)[C@H](Nc1ccc(S(=O)(=O)N2CCOCC2)cc1[N+](=O)[O-])C(=O)OCC(=O)N(C(C)C)C(C)C,"inconclusive: 10.3 µM [inhibitor, partial curve, poor fit]",
CC1(C)NC(=O)N(CCOCCOc2ccccc2)C1=O,"inconclusive: 35.5 µM [activator, single point]",
CC(C)(Oc1ccc(Cl)cc1)C(=O)N/N=C/c1cn[nH]c1-c1ccccc1,,inactive: -1.26%
CCOCCCNC(=O)C(c1ccc(C)cc1)N(Cc1ccc2c(c1)OCO2)C(=O)c1ccccn1 (stereo unspecified),"inconclusive: 28.2 µM [inhibitor, single point]",
Cc1c(C(=O)Nc2nc(-c3ccc(F)cc3)ns2)oc2ccc(Br)cc12,,inactive: -1.69% [at 46.1 µM]
COCCN(CC(=O)NCc1ccccc1)C(=O)CCC(=O)Nc1ccccn1,"inconclusive: 35.5 µM [activator, single point]",
CN(CC(=O)N1CCN(c2ncccn2)CC1)S(=O)(=O)c1ccc(Cl)cc1,,inactive: -1.51% [at 46.1 µM]
COC(=O)C(Cc1cc(Br)c(OC)c(Br)c1O)=NO,,inactive: -16% [at 14.2 µM]
CC(C)c1ccc(NC(=O)C2CCN(S(=O)(=O)c3cccc4nsnc34)CC2)cc1,"inconclusive: 3.55 µM [activator, partial curve, poor fit]",

Structure (SMILES),Potency,"activity change, negative = inhibition"
CCOC(=O)NCC(C#CCN(CC)CC)N(CC)CC (stereo unspecified),,inactive: 5.79% [at 46.1 µM]
O=C(COc1ccc2ccc(=O)oc2c1)N1CCN(c2ccc(F)cc2)CC1,"inconclusive: 3.16 µM [activator, partial curve, poor fit]",
CCOc1ccccc1C(=O)N1CCN(c2cccc(Cl)c2)CC1,"inconclusive: 0.73 µM [inhibitor, partial curve, poor fit]",
O=C1/C(=C\c2ccc(O)cc2)CCC1CNc1ccc(Cl)cc1 (stereo unspecified),"inconclusive: 5.01 µM [inhibitor, partial curve, poor fit]",
CCN(CC)S(=O)(=O)c1ccc(N2CCOCC2)c(NC(=O)c2c3c(nc4ccccc24)CCC3)c1,"inconclusive: 0.58 µM [inhibitor, full curve, poor fit]",
O=C1Cc2cc(S(=O)(=O)Nc3ccc(N4CCOCC4)cc3)ccc2N1,"inconclusive: 1.26 µM [inhibitor, single point]",
CC/C(=N\NC(=S)Nc1ccc(OC)cc1)c1ccc(OC(F)F)cc1,,inactive: 6.52%
CCCOc1ccc(-c2nc3ccccc3c(=O)o2)cc1,,inactive: 17.6% [at 46.1 µM]
COc1cccc(CNC(=O)CCC2CCCN(C/C=C/c3ccccc3OC)C2)c1 (stereo unspecified),"inconclusive: 2.24 µM [inhibitor, partial curve, poor fit]",
CCc1cccc(N(C)C(N)=Nc2cccc3ccccc23)c1,active: 11.2 µM,
O=C(c1cccc2ccccc12)N1CCN(c2ccc([N+](=O)[O-])c(NCc3ccco3)c2)CC1,"inconclusive: 1.41 µM [inhibitor, full curve, poor fit]",
O=C(Cc1ccc(Cl)cc1)Nc1ccccc1Sc1ccccc1,"inconclusive: 35.5 µM [inhibitor, single point]",
Cc1nn2c(-c3ccc(Cl)cc3Cl)nnc2s1,,inactive: -6.76% [at 46.1 µM]
C=CCOC(=O)C1=C(C)OC(N)=C(C#N)C1c1ccc(OC)c(CSc2ccccn2)c1 (stereo unspecified),,inactive: 1.61%
O=C(NCC(c1ccco1)N1CCOCC1)c1c(F)cccc1F (stereo unspecified),,inactive: -1.75% [at 46.1 µM]
Cc1ccc2c(C)c(C(=O)Nc3ccc(S(N)(=O)=O)cc3)oc2c1C,"inconclusive: 20.6 µM [inhibitor, single point]",
CC1(C)Cc2c(C#N)c(NCCc3ccccc3)nc(-c3ccco3)c2CO1,"inconclusive: 0.316 µM [inhibitor, full curve, poor fit]",
Cc1sc(NC(=O)CN2CCCC2)nc1-c1ccc2c(c1)CCN2C(=O)c1cccc(F)c1,"inconclusive: 10 µM [inhibitor, partial curve, poor fit]",
O=C(NCC(c1ccco1)N1CCCCC1)c1cccc(NS(=O)(=O)c2ccc(Br)cc2)c1 (stereo unspecified),"inconclusive: 3.16 µM [inhibitor, full curve, poor fit]",
COc1ccc(OCC(=O)Nc2cccc3cccnc23)cc1,,inactive: -22.3%
CC(C)(C)NC(=O)COC(=O)CCC(=O)c1ccc(Cl)cc1,,inactive: 3.07% [at 46.1 µM]
CN(Cc1ccccc1)C(=O)c1ccc2c(c1)NC(=O)C(N1CCOCC1)S2 (stereo unspecified),"inconclusive: 3.55 µM [inhibitor, full curve]",

Structure (SMILES),Potency,"activity change, negative = inhibition"
Cc1ccc(S(=O)(=O)N2CCN(CC(=O)N/N=C/C=C/c3ccccc3)CC2)cc1,"inconclusive: 0.199 µM [inhibitor, full curve, poor fit]",
Cc1noc(C)c1CSc1nc2sc(C)c(C)c2c(=O)n1C1CCCC1,active: 11.6 µM,
COc1ccc(NC(=O)c2c(C(=O)Nc3ccccc3)sc3nc(C)cc(=O)n23)cc1,"inconclusive: 2.82 µM [activator, partial curve, poor fit]",
O=[N+]([O-])c1ccc2nc(/C=C/c3ccc(Cl)cc3)[nH]c2c1,"inconclusive: 13 µM [inhibitor, partial curve, poor fit]",
CCOC(=O)C(C)Sc1nc(N2CCOCC2)c2c(c1C#N)CC(C)(C)OC2 (stereo unspecified),"inconclusive: 5.62 µM [activator, single point]",
COC(=O)c1ccc(S(=O)(=O)N2CCCCCC2)cc1,,inactive: 18.9%
CCC(=O)Nc1cccc(C(=O)/C=C/c2ccc(F)cc2)c1,active: 14.6 µM,
COc1ccc(S(=O)(=O)c2c(O)cc(C)c(NS(=O)(=O)c3ccccc3)c2C)cc1,"inconclusive: 12.6 µM [inhibitor, single point]",
CC12CN(S(=O)(=O)c3ccccc3)CC(C)(CN(S(=O)(=O)c3ccccc3)C1)C2,"inconclusive: 4.11 µM [activator, single point]",
COc1ccc(N2CC(C(=O)N[C@@H](CC(C)C)C(=O)NC3CCCC3)CC2=O)cc1 (stereo partly specified),"inconclusive: 3.55 µM [inhibitor, partial curve, poor fit]",
COc1ccc(OC)c(/C=C/C(=O)c2ccc(Cl)cc2)c1,,inactive: -4.45%
CCOC(=O)c1c(NC(=O)COC(=O)CCNS(=O)(=O)c2ccccc2)sc(C(=O)N(C)C)c1C,"inconclusive: 14.1 µM [activator, single point]",
CC(=O)c1sc2nc(-c3ccco3)ccc2c1N,"inconclusive: 8.91 µM [activator, partial curve, poor fit]",
CCCCN(C)CCCNC(=O)CN1C(=O)COc2ccc(S(=O)(=O)N3CCC(C)CC3)cc21,,inactive: -22.2% [at 46.1 µM]
COc1cccc(C(=O)Nc2ccc3c(c2)C(=O)N(CC2CCCO2)C3=O)c1 (stereo unspecified),"inconclusive: 35.5 µM [activator, partial curve, poor fit]",
COC(=O)C1CCN(c2ccc(Cl)nn2)CC1,,inactive: 15.7% [at 46.1 µM]
Cc1ccc(OCC(=O)Nc2ccc(C)c(S(=O)(=O)N3CCCCCC3)c2)c([N+](=O)[O-])n1,"inconclusive: 35.5 µM [inhibitor, single point]",
Cc1c(C(=O)Nc2ccc(-c3nnc4n3CCCCC4)cc2)oc2c1ccc1ccccc12,"inconclusive: 35.5 µM [inhibitor, partial curve, poor fit]",
O=c1nc(SCc2ccccc2Cl)nc(-c2ccc(Cl)cc2)[nH]1,,inactive: 0% [at 14.2 µM]
COc1ccc(OC)c(NC(=O)COC(=O)Cc2ccsc2)c1,,inactive: 2.26%
CCN1CCN(c2ncc(C(=O)N3CCCc4ccccc43)c3ccccc23)CC1,"inconclusive: 35.5 µM [inhibitor, single point]",
CCOC(=O)c1c(N)n(CCCOC(=O)c2ccco2)c2nc3ccccc3nc12,"inconclusive: 35.5 µM [inhibitor, partial curve, poor fit]",
